# Reference: PubChem BioAssay (EPA / NIEHS)
# Protein sequences, listed by entry. Tags and fused reporters are not part of them. Lines headed by an entry give the natural chain unless they say otherwise; changes in a name come on top.
# UniProt P49884, whole entry, looked up: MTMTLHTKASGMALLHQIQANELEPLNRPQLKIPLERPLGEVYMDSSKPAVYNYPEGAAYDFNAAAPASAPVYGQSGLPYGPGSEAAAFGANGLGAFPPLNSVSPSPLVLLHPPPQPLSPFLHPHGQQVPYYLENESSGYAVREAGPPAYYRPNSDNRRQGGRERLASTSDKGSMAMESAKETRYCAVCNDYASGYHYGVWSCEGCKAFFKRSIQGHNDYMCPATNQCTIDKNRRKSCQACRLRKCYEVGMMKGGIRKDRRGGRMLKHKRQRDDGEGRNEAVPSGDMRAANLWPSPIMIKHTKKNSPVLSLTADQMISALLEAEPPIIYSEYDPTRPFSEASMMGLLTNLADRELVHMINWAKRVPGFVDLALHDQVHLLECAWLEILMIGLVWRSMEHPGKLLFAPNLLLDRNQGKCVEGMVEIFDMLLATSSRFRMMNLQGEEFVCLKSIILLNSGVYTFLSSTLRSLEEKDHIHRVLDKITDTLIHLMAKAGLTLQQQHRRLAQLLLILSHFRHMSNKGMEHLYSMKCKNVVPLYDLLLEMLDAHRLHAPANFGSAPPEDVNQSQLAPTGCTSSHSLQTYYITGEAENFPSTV
# UniProt P03372, whole entry, looked up: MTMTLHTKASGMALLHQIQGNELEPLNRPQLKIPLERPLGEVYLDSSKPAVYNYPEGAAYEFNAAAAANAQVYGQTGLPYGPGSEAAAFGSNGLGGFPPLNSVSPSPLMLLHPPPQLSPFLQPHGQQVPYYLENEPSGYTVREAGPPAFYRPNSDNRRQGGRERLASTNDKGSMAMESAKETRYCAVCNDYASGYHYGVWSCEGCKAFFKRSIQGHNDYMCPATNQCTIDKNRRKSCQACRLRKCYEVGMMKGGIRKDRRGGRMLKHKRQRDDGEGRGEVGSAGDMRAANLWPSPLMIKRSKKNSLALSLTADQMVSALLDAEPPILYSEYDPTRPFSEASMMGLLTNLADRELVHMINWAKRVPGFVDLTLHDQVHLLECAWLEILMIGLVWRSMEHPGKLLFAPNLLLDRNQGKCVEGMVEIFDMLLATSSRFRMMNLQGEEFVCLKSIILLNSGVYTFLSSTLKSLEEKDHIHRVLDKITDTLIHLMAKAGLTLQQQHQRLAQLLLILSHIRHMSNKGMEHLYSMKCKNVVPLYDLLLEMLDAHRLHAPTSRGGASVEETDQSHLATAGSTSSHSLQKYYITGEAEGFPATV
# UniProt Q92731, whole entry, looked up: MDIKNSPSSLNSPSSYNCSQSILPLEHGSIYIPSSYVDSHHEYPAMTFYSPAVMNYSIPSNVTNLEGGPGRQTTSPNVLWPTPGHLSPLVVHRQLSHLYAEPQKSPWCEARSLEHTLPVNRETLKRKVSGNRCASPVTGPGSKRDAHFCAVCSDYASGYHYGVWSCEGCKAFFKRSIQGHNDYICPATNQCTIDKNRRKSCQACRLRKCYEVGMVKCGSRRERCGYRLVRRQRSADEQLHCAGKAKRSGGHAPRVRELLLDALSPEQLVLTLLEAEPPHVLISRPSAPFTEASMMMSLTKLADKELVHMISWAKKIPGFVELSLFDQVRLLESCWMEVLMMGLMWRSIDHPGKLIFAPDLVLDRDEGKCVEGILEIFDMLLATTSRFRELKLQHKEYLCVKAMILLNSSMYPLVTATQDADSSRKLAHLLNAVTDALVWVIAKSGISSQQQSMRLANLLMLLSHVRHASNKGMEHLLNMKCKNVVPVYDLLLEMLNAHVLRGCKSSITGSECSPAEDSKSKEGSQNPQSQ
# UniProt P08219: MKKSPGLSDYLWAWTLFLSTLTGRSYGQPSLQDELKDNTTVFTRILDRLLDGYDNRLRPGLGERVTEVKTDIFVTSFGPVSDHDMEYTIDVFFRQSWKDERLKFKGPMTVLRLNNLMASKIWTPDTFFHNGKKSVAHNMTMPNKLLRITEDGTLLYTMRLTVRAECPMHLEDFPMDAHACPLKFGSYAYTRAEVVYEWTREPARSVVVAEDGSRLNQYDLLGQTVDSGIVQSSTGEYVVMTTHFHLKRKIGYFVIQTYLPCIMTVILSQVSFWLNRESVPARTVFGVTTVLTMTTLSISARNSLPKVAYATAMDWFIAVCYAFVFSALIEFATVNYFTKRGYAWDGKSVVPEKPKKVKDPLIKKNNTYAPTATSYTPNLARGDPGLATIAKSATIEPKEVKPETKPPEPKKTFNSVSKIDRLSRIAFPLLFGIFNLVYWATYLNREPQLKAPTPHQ
# UniProt P07727: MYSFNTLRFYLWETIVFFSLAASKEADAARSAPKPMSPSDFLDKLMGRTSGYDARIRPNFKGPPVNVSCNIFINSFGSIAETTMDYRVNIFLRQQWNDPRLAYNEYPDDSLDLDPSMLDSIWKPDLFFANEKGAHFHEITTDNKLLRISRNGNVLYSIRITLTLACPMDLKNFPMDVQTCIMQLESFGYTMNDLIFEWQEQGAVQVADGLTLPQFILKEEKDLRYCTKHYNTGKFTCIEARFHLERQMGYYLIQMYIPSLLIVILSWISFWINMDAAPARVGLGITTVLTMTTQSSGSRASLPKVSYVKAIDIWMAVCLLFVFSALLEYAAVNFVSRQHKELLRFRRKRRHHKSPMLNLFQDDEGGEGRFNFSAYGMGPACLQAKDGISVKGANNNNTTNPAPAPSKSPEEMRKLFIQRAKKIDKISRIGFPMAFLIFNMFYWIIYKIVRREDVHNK
# UniProt P30191, whole entry, looked up: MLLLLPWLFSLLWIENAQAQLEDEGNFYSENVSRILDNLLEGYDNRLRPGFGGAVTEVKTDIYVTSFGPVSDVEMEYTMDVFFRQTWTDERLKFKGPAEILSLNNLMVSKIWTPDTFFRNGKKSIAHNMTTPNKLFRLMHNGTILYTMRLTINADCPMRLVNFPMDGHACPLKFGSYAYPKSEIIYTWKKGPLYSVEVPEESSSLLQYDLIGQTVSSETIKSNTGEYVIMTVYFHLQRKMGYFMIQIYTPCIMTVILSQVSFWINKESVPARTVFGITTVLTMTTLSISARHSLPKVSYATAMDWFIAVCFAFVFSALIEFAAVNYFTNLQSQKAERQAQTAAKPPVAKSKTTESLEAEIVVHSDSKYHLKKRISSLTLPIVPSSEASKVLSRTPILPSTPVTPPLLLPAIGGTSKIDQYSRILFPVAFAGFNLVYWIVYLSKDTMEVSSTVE
# UniProt P10275: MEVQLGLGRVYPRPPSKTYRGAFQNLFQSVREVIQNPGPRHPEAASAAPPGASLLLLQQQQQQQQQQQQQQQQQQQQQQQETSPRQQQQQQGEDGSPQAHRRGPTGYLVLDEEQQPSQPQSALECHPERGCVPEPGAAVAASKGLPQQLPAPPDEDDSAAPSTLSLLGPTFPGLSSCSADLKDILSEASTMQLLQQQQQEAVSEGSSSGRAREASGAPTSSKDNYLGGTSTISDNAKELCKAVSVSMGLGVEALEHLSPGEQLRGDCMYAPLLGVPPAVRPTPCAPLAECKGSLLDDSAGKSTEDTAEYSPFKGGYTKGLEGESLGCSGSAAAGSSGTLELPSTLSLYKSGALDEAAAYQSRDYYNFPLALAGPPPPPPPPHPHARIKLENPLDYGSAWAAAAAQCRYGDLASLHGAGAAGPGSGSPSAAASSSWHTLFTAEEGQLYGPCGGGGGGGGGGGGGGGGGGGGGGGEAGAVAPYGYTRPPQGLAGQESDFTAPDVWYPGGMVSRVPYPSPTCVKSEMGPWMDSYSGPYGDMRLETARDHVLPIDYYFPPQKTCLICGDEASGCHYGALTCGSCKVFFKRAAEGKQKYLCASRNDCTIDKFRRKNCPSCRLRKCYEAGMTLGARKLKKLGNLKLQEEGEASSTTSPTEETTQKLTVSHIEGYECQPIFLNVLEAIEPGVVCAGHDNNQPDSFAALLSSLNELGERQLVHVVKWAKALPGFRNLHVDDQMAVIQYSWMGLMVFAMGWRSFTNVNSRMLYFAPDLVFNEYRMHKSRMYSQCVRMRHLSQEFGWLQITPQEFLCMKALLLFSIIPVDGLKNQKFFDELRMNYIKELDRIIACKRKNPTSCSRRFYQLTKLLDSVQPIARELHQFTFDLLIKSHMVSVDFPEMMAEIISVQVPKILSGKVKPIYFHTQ
# UniProt Q14994: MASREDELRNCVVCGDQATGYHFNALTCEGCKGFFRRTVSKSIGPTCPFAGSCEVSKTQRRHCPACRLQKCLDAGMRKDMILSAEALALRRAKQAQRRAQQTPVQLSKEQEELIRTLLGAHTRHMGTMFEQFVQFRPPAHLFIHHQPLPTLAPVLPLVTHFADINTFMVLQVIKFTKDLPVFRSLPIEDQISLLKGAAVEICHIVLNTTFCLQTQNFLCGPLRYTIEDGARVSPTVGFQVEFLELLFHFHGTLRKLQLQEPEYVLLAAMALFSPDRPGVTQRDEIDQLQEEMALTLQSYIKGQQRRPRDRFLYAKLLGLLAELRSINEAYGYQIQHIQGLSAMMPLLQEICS
# Inconclusive means that the source gave no clear call. Such entries were picked first, then a sample of the others. Where the call is inconclusive, the potency comes from a doubtful curve fit. Active and inactive are the calls of the source. Rule for the calls: active = hit-call score of the fitted dose curve at least 0.9, where 1 is the maximum; inconclusive = response in the unintended direction; inactive = score below 0.9.
# Tests used:
# [1] = NVS_IC_rCaBTZCHL: NovaScreen (NVS) Ion Channel Assay for Calcium Channel, Type L, Benzothiazepine Site (CaBTZCHL) (AID 2283337)
# Procedure, shortened: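 Radioligand displacement at the benzothiazepine site using rat cortical membranes; bound label measured by filtration and scintillation counting 1.5 h after dosing. Single-point 25 uM in duplicate, then concentration series; DMSO baseline.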
# [2] = molecular target: bovine Estrogen Receptor (ER), ESR1 (gene 407238) (UniProt P49884); experiment: NVS_NR_bER: NovaScreen (NVS) Nuclear Receptor Binding Assay for bovine Estrogen Receptor (ER) (AID 2283345);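 note: actives lower the bound radioligand count which means they displace the ER ligand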
# Procedure, shortened: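 Bovine uterine membranes; tritiated or iodinated radioligand; competitive displacement; 18 h; scintillation read; DMSO negative control; 25 uM duplicates, then concentration series for actives.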
# [3] = molecular target: Estrogen receptor (Homo sapiens) (UniProt P03372); experiment: NVS_NR_hER: NovaScreen (NVS) Nuclear Receptor Binding Assay for human Estrogen Receptor (ER) (AID 2283348)
# Procedure, shortened: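 Radioligand competitive displacement binding to estrogen receptor from MCF7 extract, cell-free; 18 h after dosing, scintillation read-out. Primary screen in duplicate at 25 uM; actives followed up in concentration series; loss of signal vs DMSO.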
# [4] = molecular target: Estrogen receptor (Homo sapiens) (UniProt P03372); experiment: OT_ER_ERaERa_0480: Odyssey Thera (OT) 8-hour HEK293T Protein-Complementation Assay for Estrogen Receptor-alpha/-alpha Homodimer (AID 2283351);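 note: rise in fluorescence from reassembled reporter fragments on ERα LBD homodimer in nucleus or whole cell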
# Procedure, shortened: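 The readout is complementation of fragments fused to the human ER alpha ligand-binding domain (aa 310-547), stably expressed in HEK293T cells. After 8 h of exposure, the increase in nuclear/cytoplasmic fluorescence was measured by laser scanning cytometry and fitted relative to DMSO.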
# [5] = molecular target: Estrogen receptor (Homo sapiens) + Estrogen receptor beta (Homo sapiens) (UniProt P03372+Q92731); experiment: OT_ER_ERaERb_0480: Odyssey Thera (OT) 8-hour HEK293T Protein-Complementation Assay for Estrogen Receptor-alpha/-beta Heterodimer (AID 2283352)
# Procedure, shortened: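 HEK293T protein-fragment complementation assay of ER-alpha/ER-beta LBD heterodimerisation, read 8 h after dosing. Mean nuclear/cytoplasmic fluorescence intensity measured by laser scanning cytometry; gain of signal fitted relative to DMSO.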
# [6] = molecular target: bovine Gamma-Aminobutyric Acid Type A Receptor Agonist (GABAR Agonist), GABRA1 (gene 780973) (UniProt P08219); experiment: NVS_LGIC_bGABAR_Agonist: NovaScreen (NVS) Ligand-Gated Ion Channel Assay for bovine Gamma-Aminobutyric Acid Type A Receptor Agonist (GABAR Agonist) (AID 2283338)
# Procedure, shortened: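 Radioligand binding to bovine cerebellar membranes in agonist format, read by filter-based scintillation counting after 1 h. Primary screen in duplicate at 25 uM, with actives followed in concentration series. Gain of signal versus DMSO.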
# NCBI gene 100848466 = experiment: NVS_NR_bPR: NovaScreen (NVS) Nuclear Receptor Binding Assay for bovine Progextron Receptor (PR) (AID 2283343);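 for AC50: actives lower bound radioligand signal below DMSO meaning displacement of the label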
# Procedure, shortened: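 Bovine uterine membrane preparation; radioligand displacement read by scintillation counting 18 h after dosing. Primary screen single concentration, 25 uM, in duplicate; actives followed up in concentration series. Signal loss versus DMSO baseline.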
# [7] = molecular target: rat Glycine Receptor, Strychnine-sensitive (GlyRStrySens), Glra1 (gene 25674) (UniProt P07727); experiment: NVS_LGIC_rGlyRStrySens: NovaScreen (NVS) Ligand-Gated Ion Channel Assay for rat Glycine Receptor, Strychnine-sensitive (GlyRStrySens) (AID 2283341)
# Procedure, shortened: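 Radioligand displacement on rat spinal cord membranes, 1 hr, filter scintillation read-out. Single-concentration duplicate screen at 25 uM; chemicals meeting threshold (e.g., 30% inhibition) rerun in concentration-response up to 50 uM. Loss of binding fitted versus DMSO.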
# [8] = molecular target: rat Gamma-Aminobutyric Acid Type A Receptor BDZ, alpha 6 site (GABARa6), Gabra6 (gene 29708) (UniProt P30191); experiment: NVS_LGIC_rGABARa6: NovaScreen (NVS) Ligand-Gated Ion Channel Assay for rat Gamma-Aminobutyric Acid Type A Receptor BDZ, alpha 6 site (GABARa6) (AID 2283339)
# Procedure, shortened: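 Rat cerebellar membranes; radioligand binding, filtration and scintillation counting, read 1 h after dosing. Single-concentration duplicate screen at 25 uM, then concentration-response up to 50 uM for actives; loss of signal fitted versus DMSO baseline.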
# [9] = molecular target: Androgen Receptor/SRC-1 Co-activator, AR (gene 367) (UniProt P10275); experiment: OT_AR_ARSRC1_0480: Odyssey Thera (OT) 8-hour HEK293T Protein-Complementation Assay for Androgen Receptor/SRC-1 Co-activator (AID 2283354);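 note: hits raise the complementation signal above DMSO so AC50 marks enhancers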
# Procedure, shortened: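 HEK293T cells stably expressing AR and SRC-1 fused to Venus YFP fragments, imaged 8 h after dosing. Complementation fluorescence scored as nuclear/cytoplasmic ratio at 488 nm in at least 400 cells per image; gain fitted versus DMSO.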
# [10] = molecular target: human Constitutive Androstane Receptor (CAR), NR1I3 (gene 9970) (UniProt Q14994); experiment: NVS_NR_hCAR_Antagonist: NovaScreen (NVS) Nuclear Receptor Binding Assay for human Constitutive Androstane Receptor Antagonism (CAR) (AID 2283344)
# Procedure, shortened: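 Cell-free TR-FRET binding read 1 h after dosing, antagonist mode; loss of signal versus DMSO baseline. Primary screen in duplicate at a single 25 uM; actives retested in concentration series.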
smiles,measurement,setting,value
CCN1CCC2(CC1)COc1cc3c(cc12)N(C(=O)c1ccc(-c2ccc(-c4nnc(C)o4)cc2C)cc1)CC3,AC50,[1],active: 4.16 µM
same,AC50,[2],inconclusive: 38.2 µM
same,AC50,[3],inconclusive: 23.4 µM
same,AC50,[4],inconclusive: 46.8 µM
same,AC50,[5],inconclusive: 9.28 µM
CCCCOC(=O)c1ccccc1C(=O)OCCCC,AC50,[6],inconclusive: 46.7 µM
same,AC50,NCBI gene 100848466,inconclusive: 4.96 µM
same,AC50,[2],inconclusive: 25 µM
same,AC50,[3],inconclusive: 25 µM
CC(Oc1ccc(Cl)cc1Cl)C(=O)O (stereo not given),outcome,[7],inactive
same,AC50,[2],inconclusive: 25 µM
O=C(O)C(F)(F)C(F)(F)C(F)(F)C(F)(F)C(F)(F)C(F)(F)C(F)(F)C(F)(F)C(F)(F)F,outcome,[6],inactive
same,outcome,[2],inactive
CC(C)COC(=O)c1ccccc1C(=O)OCC(C)C,AC50,[6],inconclusive: 25 µM
same,AC50,[3],inconclusive: 25 µM
same,AC50,[4],active: 31.4 µM
same,AC50,[5],active: 17.2 µM
CCC(=O)c1ccccc1,outcome,[8],inactive
CC(C)(O)c1cnn2c(-c3ccc(F)c(-c4c(F)cccc4C#N)c3)cnc2n1,outcome,[6],inactive
CCC1(c2ccccc2)C(=O)N=C(O)NC1=O (stereo not given),AC50,[6],inconclusive: 6.89 µM
same,AC50,[8],inconclusive: 0.091 µM
same,AC50,[4],inconclusive: 50 µM
C[C@]12CCC(=O)C[C@@H]1CC[C@@H]1[C@@H]2CC[C@]2(C)[C@@H](O)CC[C@@H]12,outcome,NCBI gene 100848466,inactive
CCC(=O)C(CC(C)N(C)C)(c1ccccc1)c1ccccc1 (stereo not given),AC50,[6],inconclusive: 0.175 µM
same,AC50,[7],active: 18.1 µM
same,AC50,[9],inconclusive: 36.2 µM
O=S(=O)(c1ccc(Cl)cc1)c1ccc(Cl)cc1,AC50,[1],inconclusive: 25 µM
same,outcome,[2],inactive
CCCCc1ccccc1,AC50,[6],inconclusive: 6.52 µM
CCCCCCCCn1sccc1=O,AC50,[6],inconclusive: 26 µM
same,outcome,[3],inactive
CC[C@H](C)[C@H]1O[C@]2(C=C[C@@H]1C)C[C@@H]1C[C@@H](C/C=C(\C)[C@@H](O[C@H]3C[C@H](OC)[C@@H](O[C@H]4C[C@H](OC)[C@@H](O)[C@H](C)O4)[C@H](C)O3)[C@@H](C)/C=C/C=C3\CO[C@@H]4[C@H](O)C(C)=C[C@@H](C(=O)O1)[C@]34O)O2 (tested in a mixture with another compound),AC50,[7],active: 0.494 µM
same,AC50,[10],active: 10.1 µM
same,AC50,[3],inconclusive: 0.451 µM
COc1ccc(C(c2ccc(OC)cc2)C(Cl)(Cl)Cl)cc1,outcome,NCBI gene 100848466,inactive
CC1(C)C(C=C(Cl)Cl)C1C(=O)OC(C#N)c1cccc(Oc2ccccc2)c1 (stereo not given),AC50,[8],inconclusive: 25 µM
same,AC50,[10],inconclusive: 0.0222 µM
CC12CC1(C)C(=O)N(c1cc(Cl)cc(Cl)c1)C2=O (stereo not given),AC50,[7],inconclusive: 1.77 µM
same,AC50,[9],inconclusive: 0.5 µM
same,outcome,[9],inactive
O=c1ssc(Cl)c1Cl,AC50,[1],inconclusive: 0.0705 µM
same,AC50,[5],inconclusive: 17.8 µM
O=C(Nc1ccccc1)Nc1cnns1,AC50,[8],active: 3.68 µM
same,AC50,[2],inconclusive: 0.357 µM
same,AC50,[3],inconclusive: 25 µM
same,AC50,[5],inconclusive: 50 µM
Oc1cc(Cl)ccc1Oc1ccc(Cl)cc1Cl,AC50,[6],inconclusive: 25.5 µM
same,outcome,NCBI gene 100848466,inactive
C=COCCCl,outcome,[8],inactive
O=C(Oc1ccc(Br)cc1)N1CCN2CCC1CC2,AC50,[6],active: 25 µM
O=C(NC(=O)c1cc(F)c(F)cc1Cl)Nc1cc(F)ccc1N1CCC(C(=O)O)CC1,AC50,[6],inconclusive: 0.0995 µM
same,outcome,[7],inactive
CO/C=C(/C(=O)OC)c1ccccc1COc1cccc(C(F)(F)F)n1,AC50,[6],inconclusive: 0.154 µM
same,outcome,[3],inactive
c1ccc2c(c1)-c1cccc3cccc-2c13,AC50,[6],inconclusive: 0.00229 µM
same,AC50,[10],inconclusive: 25 µM
CCCCCCCCCCCCCN1CC(C)OC(C)C1 (stereo not given),outcome,[6],inactive
same,AC50,[2],inconclusive: 0.0792 µM
Cc1c(F)c(F)c(COC(=O)C2C(/C=C(\Cl)C(F)(F)F)C2(C)C)c(F)c1F (stereo not given),outcome,[7],inactive
N#Cc1cc(Br)c(O)c(Br)c1,AC50,[7],inconclusive: 6.1 µM
same,outcome,[9],inactive
[2H]C1([2H])[n+]2ccccc2-c2cccc[n+]2C1([2H])[2H],outcome,[6],inactive
same,AC50,[2],inconclusive: 25 µM
CON(C)C(=O)Nc1ccc(Cl)c(Cl)c1,outcome,NCBI gene 100848466,inactive
same,AC50,[3],inconclusive: 25 µM
O=C(O)COc1nc(Cl)c(Cl)cc1Cl,outcome,[10],inactive
same,AC50,[2],inconclusive: 25 µM
same,AC50,[3],inconclusive: 25 µM
N#Cc1nn(-c2c(Cl)cc(C(F)(F)F)cc2Cl)c(N)c1S(=O)C(F)(F)F (stereo not given),AC50,[10],inconclusive: 25 µM
same,AC50,[5],inconclusive: 15.3 µM

# Random excerpt: 4 records from the list.
smiles,measurement,setting,value
O=C(O)C(F)(F)C(F)(F)C(F)(F)C(F)(F)C(F)(F)C(F)(F)C(F)(F)C(F)(F)C(F)(F)F,outcome,[2],inactive
N#Cc1nn(-c2c(Cl)cc(C(F)(F)F)cc2Cl)c(N)c1S(=O)C(F)(F)F (stereo not given),AC50,[10],inconclusive: 25 µM
CCCCOC(=O)c1ccccc1C(=O)OCCCC,AC50,[2],inconclusive: 25 µM
O=C(Nc1ccccc1)Nc1cnns1,AC50,[8],active: 3.68 µM
